Consider three molecules from article PMC9256704.

By UniProt entry, the sequences of proteins in these tests, tags left out.
UniProt P14618: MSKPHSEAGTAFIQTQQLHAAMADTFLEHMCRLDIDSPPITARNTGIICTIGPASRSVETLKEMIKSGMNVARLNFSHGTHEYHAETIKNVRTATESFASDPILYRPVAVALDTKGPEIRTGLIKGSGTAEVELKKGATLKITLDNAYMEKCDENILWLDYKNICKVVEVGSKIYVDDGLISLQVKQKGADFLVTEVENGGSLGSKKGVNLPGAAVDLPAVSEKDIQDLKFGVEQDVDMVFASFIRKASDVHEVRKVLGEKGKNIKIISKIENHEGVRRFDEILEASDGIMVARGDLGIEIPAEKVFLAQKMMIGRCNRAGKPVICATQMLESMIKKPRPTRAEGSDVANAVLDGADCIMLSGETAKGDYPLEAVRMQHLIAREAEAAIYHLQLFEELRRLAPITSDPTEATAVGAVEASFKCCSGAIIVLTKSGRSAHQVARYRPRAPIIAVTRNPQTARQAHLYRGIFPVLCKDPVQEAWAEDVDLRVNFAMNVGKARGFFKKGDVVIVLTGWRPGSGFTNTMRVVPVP

Assay [1] addresses GST-PKM2 (UniProt P14618). Briefly: pull-down; GST-PKM2 induced by IPTG; anti-GST antibodies precipitated Flag-TRIB2 (Fig. S1G); source of Flag-TRIB2 not told.
Assay [2] addresses PKM2 (M2 isoform of pyruvate kinase), endogenous (human (endogenous in A549 and in patients' lung cancer tissues)) (UniProt P14618). The assay can be described thus: co-IP; lysates of A549 cells (endogenous proteins, or GFP-TRIB2-overexpressed cells) incubated with primary antibodies or control IgG overnight at 4 °C, protein G/A beads 2 h at 4 °C; immunoblotting. In general terms: In western blotting, separated proteins are transferred to a membrane and probed.

Assay [3] has as its target GST-PKM2 (UniProt P14618). Briefly: pull-down; GST-fusion protein from E. coli bound to GST beads, incubated with cell lysates (A549, H1299 or other cells) for 4 h at 4 °C; adsorbed proteins by immunoblotting; the results call it Co-IP with anti-GST antibodies; only the target purified.

No constants are given. Whether binding was seen depends on the method and setting. In cells and extracts the contact can be indirect. Some entries that bind do so weakly or less than the wild type. For some of these results: Sequences can lack the tags named with a protein.

B1: Flag-TRIB2 (protein, UniProt Q92519 1-343)
chain: MNIHRSTPITIARYGRSRNKTQDFEELSSIRSAEPSQSFSPNLGSPSPPETPNLSHCVSCIGKYLLLEPLEGDHVFRAVHLHSGEELVCKVFDISCYQESLAPCFCLSAHSNINQITEIILGETKAYVFFERSYGDMHSFVRTCKKLREEEAARLFYQIASAVAHCHDGGLVLRDLKLRKFIFKDEERTRVKLESLEDAYILRGDDDSLSDKHGCPAYVSPEILNTSGSYSGKAADVWSLGVMLYTMLVGRYPFHDIEPSSLFSKIRRGQFNIPETLSPKAKCLIRSILRREPSERLTSQEILDHPWFSTDFSVSNSAYGAKEVSDQLVPDVNMEENLDPFFN
As for B1, the binding entry in assay [1] was “binds”.

B2: GFP-TRIB2 (protein, UniProt Q92519 1-343)
chain: MNIHRSTPITIARYGRSRNKTQDFEELSSIRSAEPSQSFSPNLGSPSPPETPNLSHCVSCIGKYLLLEPLEGDHVFRAVHLHSGEELVCKVFDISCYQESLAPCFCLSAHSNINQITEIILGETKAYVFFERSYGDMHSFVRTCKKLREEEAARLFYQIASAVAHCHDGGLVLRDLKLRKFIFKDEERTRVKLESLEDAYILRGDDDSLSDKHGCPAYVSPEILNTSGSYSGKAADVWSLGVMLYTMLVGRYPFHDIEPSSLFSKIRRGQFNIPETLSPKAKCLIRSILRREPSERLTSQEILDHPWFSTDFSVSNSAYGAKEVSDQLVPDVNMEENLDPFFN
For B2, the binding entry in assay [2] is given as “binds”.

B3: TRIB2, endogenous (protein, UniProt Q92519 1-343)
chain: MNIHRSTPITIARYGRSRNKTQDFEELSSIRSAEPSQSFSPNLGSPSPPETPNLSHCVSCIGKYLLLEPLEGDHVFRAVHLHSGEELVCKVFDISCYQESLAPCFCLSAHSNINQITEIILGETKAYVFFERSYGDMHSFVRTCKKLREEEAARLFYQIASAVAHCHDGGLVLRDLKLRKFIFKDEERTRVKLESLEDAYILRGDDDSLSDKHGCPAYVSPEILNTSGSYSGKAADVWSLGVMLYTMLVGRYPFHDIEPSSLFSKIRRGQFNIPETLSPKAKCLIRSILRREPSERLTSQEILDHPWFSTDFSVSNSAYGAKEVSDQLVPDVNMEENLDPFFN
Take B3: the binding result in assay [2] and in assay [3] was “binds” each time.
